According to PMC2712673:
No constants are given. Whether binding was seen depends on the method and setting. Some binding calls cover weakened binding; strength is not graded here.

The chains behind the UniProt entries cited, without tags or fusion partners. Residues count along the entry.
UniProt P09234, residues 1-77: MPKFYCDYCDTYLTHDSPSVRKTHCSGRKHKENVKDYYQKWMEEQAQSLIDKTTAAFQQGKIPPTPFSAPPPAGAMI

Target: SmD3 (human) (UniProt P62318)
Assay: crystal structure; U1 snRNP reconstituted from U1 snRNA and nine recombinant proteins; P1 crystals with four particles in the ASU, hanging drop, 38%-40% 2-methyl-2,4-pentanediol, 4°C; experimental map at 6.5 Å, extended to 5.5 Å by multi-NCS, multi-crystal averaging; chains placed with Se, Zn and Hg anomalous peaks; both purified

With U1-C (from UniProt P09234 1-77) the binding was “binds”.
